From PubChem BioAssay AID1508600 (Functional Genomics Laboratory (NCATS/FGL), 2020)
Out of some 53,000 sequences screened, about 3,700 (7%) were called active.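 Rule for the calls: active = gene knockdowns whose robust z-score for IL-1 alpha signal is at least 2 or at most -2, so actives lie on both sides; inactive = the rest.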 The list shows a part of the results.

Test: Components of the Cytosolic LPS Sensing Pathway: Gene Identification via Genome-wide siRNA Screen;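 note: robust z of the log signal after scaling to non-targeting control siRNA wells of the plate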
Conditions: RAW264.7 macrophages, IL-1a HTRF, actives lie on both sides, screened at 100 nM (by protocol), cells primed 5 h with Pam3CSK4 first
Procedure, shortened: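 RAW264.7 mouse macrophages reverse-transfected with single siRNAs (100 nM final) for 48h, primed with Pam3CSK4 for 5 hours, then transfected with LipidA for 24 hour. Supernatant IL-1a read by HTRF; values normalized to negative-control median, log-transformed robust z-scores.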

| Sequence | z-score |
| --- | --- |
| GUCUGUGACCAGUUCCAUUTT against Fgf2os | inactive: 0.354 |
| GGCUCACUUUAUGUCGUGUTT against Atg5 | inactive: -1.24 |
| GGACUUAUUUCUCAAGUGUTT against Cd5 | inactive: 0.08 |
| GGCUCAGCUCCAGCAUAAUTT against Fam166b | inactive: -0.599 |
| GUCCCUCAAAAUGACGGACTT against Tlx3 | inactive: -0.417 |
| GCACAACUUGUGGUAGAAGTT against 4933409G03Rik | inactive: 1.26 |
| GGUCCUGGAGGAUACUUGGTT against Slc17a3 | inactive: -1.74 |
| GCAGUUGUAGGAACCGAAATT against Cxxc5 | inactive: 0.403 |
| GCUUCAUGAUGAAUCACCUTT against Otulinl | active: -2.1 |
| GGGAUCAUCUUGCUGUUCUTT against Cd79a | inactive: 0.0496 |
| GCUAUUAAGACCUUGGGAGTT against 4833432P19Rik | inactive: 0.32 |
| GGUGGACGGACAUUUUGUUTT against Rab9 | inactive: -1.27 |
| ACUGUAUGAAGAGGAAACATT against Krt87 | active: -2.14 |
| GGAAAAGAGACAGAAUUUGTT against Cd3eap | inactive: -0.69 |
| CGAGAUUGAUAGUACAUUCTT against Olfr1229 | inactive: -0.203 |
| GGCAGAUGCCAAUGAGGAATT against Cst3 | inactive: 1.48 |
| GGCCUGAGCUUUUUAACACTT against Slc52a3 | inactive: -0.442 |
| GAUUGGAACUUGUGGAUCUTT against Defb8 | inactive: 0.424 |
| GGACCAAGGCCUCACAAAATT against Nppb | inactive: -0.37 |
| GGCUGGAUGAACUUGCUCATT against Pld5 | inactive: -0.348 |
| GGAAUCCUGUUCCUUAUCATT against Slc43a3 | inactive: -1.61 |
| GCCGGCUACUGUAUUGAAUTT against Mamdc2 | inactive: -0.0306 |

Quoted from above for reference:

| Sequence | z-score |
| --- | --- |
| GCAGUUGUAGGAACCGAAATT against Cxxc5 | inactive: 0.403 |
| GCUUCAUGAUGAAUCACCUTT against Otulinl | active: -2.1 |
| GGGAUCAUCUUGCUGUUCUTT against Cd79a | inactive: 0.0496 |

Remaining list, next part.

| Sequence | z-score |
| --- | --- |
| CGUAGUACCCAUGAAUUACTT against Adora2a | active: 4.87 |
| GGAGCUUUCCACUGAGUUCTT against 1700012A03Rik | inactive: 0.247 |
| GGUAGAACCUAGAAGAGAGTT against Gdpd5 | inactive: 1.24 |
| GCAGCUAAUGCAGAUAUUATT against Sucla2 | inactive: 1.09 |
| GGAUUUUCUGGAGUUGAUGTT against Mcoln2 | inactive: -1.08 |
| GGUCAUCAAUGCCACAGCUTT against Lpo | active: -2.24 |
| GCCAUUUACAUCUACAUUATT against Olfr1338 | inactive: 0.243 |
| GCGGCCUCAUCAUUUCAUCTT against Actr5 | inactive: 0.312 |
| GGAAGUGGAAAAACUGGUGTT against Ddx1 | inactive: -1.21 |
| GGACCUAUCUGAUGUCCAGTT against Il18rap | inactive: 0.473 |
| GGCCCUCAUGAUUGCUAUGTT against Nek8 | inactive: -0.722 |
| GCCAGAAGCAGCUUACCUGTT against Sec1 | inactive: -0.451 |
| GCGACAAGGCAAAGCUAGATT against Ppp1r21 | inactive: -1.26 |
| GCAGGACCACACGUAUUCATT against Foxred1 | inactive: -0.715 |
| GGAAAGAAGAAAGAACACATT against Tmpo | inactive: 0.562 |
| GGAAAUUAGUGCUGGGCGUTT against Erbb3 | inactive: 0.424 |
| GGAGAGGUUACUUUUGAGGTT against Slc25a13 | inactive: -0.606 |
| CGGAAAACAAUAUCGUGAATT against Pfdn6 | inactive: -1.65 |
| CGAAACCUGCUUAAAACAATT against Cgas | inactive: -0.607 |
| GACAAUACCAUAUCCUUUGTT against Olfr698 | inactive: 0.486 |
| GGAUUGGAUCCGAGACCAATT against Tspan17 | inactive: 0.233 |
| GCUGGAAUUCUCUUGGCUGTT against Trcg1 | inactive: 0.635 |

| Sequence | z-score |
| --- | --- |
| CGGUAGAACUAACGUGAUUTT against Irx2 | inactive: -1.38 |
| GGAGUUGAUCAAGACAGAGTT against S100a5 | inactive: -1.6 |
| GGUAUCAGUCGUCUGGGAGTT against Tas2r118 | inactive: 1.02 |
| GGCCAUGAGAAGAAGAAAGTT against Cep72 | inactive: -1.49 |
| GGGCGUACUCAACGUGAUUTT against Rbm47 | inactive: 1.57 |
| GCCUUGACGAUAGAUUAUUTT against Irf2 | inactive: 1.36 |
| GGACUUGGGUUUCAAUUCCTT against Ddx27 | inactive: -0.876 |
| CCCUGCAUUGCCUUAUAUCTT against Dram2 | inactive: -0.394 |
| GGGAAGGAUGGAAAAAGAUTT against Dlc1 | inactive: -0.378 |
| CCACACGUGUUGAACUUGATT against Dnm2 | inactive: -1.57 |
| CAAGUACAAGCAGUUGACCTT against BC061237 | inactive: -0.0958 |
| GCCUUGAAGGACCACUAGATT against Itgb1bp1 | inactive: 0.271 |
| GGGAAUCAAUGAAGGAUUUTT against Calcrl | inactive: -0.288 |
| GGCAGAUUGAUAAAAUUCATT against Stag1 | inactive: -0.223 |
| CCGGUAUUGUGAGCAAAUUTT against Zfp952 | inactive: -0.971 |
| GGACAGCUUUCAUGGAAAATT against Riox1 | inactive: 0.569 |
| CGUGCUACGAACAUGCUGCTT against Mmd | inactive: 0.0429 |
| GGCAUUGUUUCAGUAUUGUTT against Fndc9 | inactive: -0.369 |
| GGGUGCACUUUUGAUUCUATT against Ifitm7 | inactive: 1.2 |
| GGACCUAAAGAAUUCAUCGTT against Unc79 | inactive: 0.109 |
| GGCUGUUUGUGUUCUGUGCTT against Mst1 | inactive: -1.89 |
| GGGUACAUCUAACUUGAAUTT against Tnfrsf10b | inactive: -0.411 |

| Sequence | z-score |
| --- | --- |
| GCCAAGUAUCAUCCAUUCCTT against Olfr23 | inactive: 0.534 |
| GGCAGAAAAUUGUUCUUAUTT against Cpt1a | inactive: -1.49 |
| GGACGAGGACCAGCUAGAATT against Txn2 | active: -2.07 |
| GGUGGAGUCAAAGGAACCCTT against Tprn | inactive: -0.266 |
| GGUCAGGUUGCCAAGAAGGTT against Sbds | inactive: 1.59 |
| GCCGGAGAUUUAAUAUUGATT against Chml | inactive: 0.586 |
| GGACUCAUGAAAUCAAGAATT against Washc2 | inactive: 0.396 |
| GGAUUUAUGUGGACAACGCTT against Dnah8 | inactive: 0.0478 |
| GGCUCAUUUGAUGGAUUUCTT against Elf5 | inactive: -0.679 |
| GGACAGCUUCCGAAACUAUTT against Miox | inactive: 0.349 |
| GGGAAAAUCUGAAGUGUAATT against Galnt13 | inactive: 0.0552 |
| GGUCCGUCUGGUAAAAAGATT against Ctnna2 | inactive: 1.19 |
| GCCAAGAAACAAUACUCAUTT against Olfr1352 | inactive: 0.694 |
| CGAGAGCUAAAAAGAGUAATT against Chd1 | inactive: 0.42 |
| GGGUUGCUGACUUUAGGAUTT against Lmx1a | inactive: 0.427 |
| CGCACUUGACCUAGCAAGUTT against A230083G16Rik | inactive: 0.777 |
| GGGAACUUCCUUGAGAAGATT against Mgat4d | inactive: 0.654 |
| GGAAGUUGAAAUGCUGUCGTT against Clcnka | active: -2.24 |
| GGGUUCUGGGAACUUUAUATT against Bdkrb1 | inactive: 1.71 |
| GGCUCUGUUGAAUGCAACGTT against Slc39a6 | active: -2.15 |
| GGGAUUAAAAGAUGACAUUTT against Dusp12 | inactive: 0.147 |
| GGUCCAAUUAACUUCACCGTT against Myl2 | inactive: -0.692 |

Rewritten tab-delimited: entries from further up
Sequence	z-score
GGUGGAGUCAAAGGAACCCTT against Tprn	inactive: -0.266
GGUCAGGUUGCCAAGAAGGTT against Sbds	inactive: 1.59
GCCGGAGAUUUAAUAUUGATT against Chml	inactive: 0.586

The results go on.

| Sequence | z-score |
| --- | --- |
| GGACAAAAUUAGACCUUUGTT against Arf2 | inactive: 0.47 |
| GGCAUGACUAUAACCAUUUTT against 1110004F10Rik | inactive: 1.23 |
| GGAGAGAUUUCUUGGUAAATT against Tex261 | inactive: 0.108 |
| GUCUUCAGCAGUCUUCAGGTT against Sprr2f | inactive: -1.1 |
| GCAAGUGGUGUCGCUGUCATT against Olfr1349 | inactive: -1.18 |
| GAUCCUUGACUACAUCUAUTT against Asic4 | inactive: -0.422 |
| GGAAUUCUUGAAGAUUCCCTT against Ptpn7 | inactive: 0.884 |
| CCUUGAGUACUUAUUGCGUTT against Chac1 | inactive: 0.934 |
| CUGCUAUGACGACAACUACTT against Klk1b3 | inactive: 0.919 |
| CCCUACGUGACAACCAGCATT against Tspyl2 | inactive: -0.165 |
| CCGUACAGAUUGAGAAUACTT against Lmbrd1 | inactive: -0.79 |
| CCGUCAAAAGGGAAUUUCATT against Abca17 | inactive: -0.689 |
| GGCCAGGCUUUUGACUUUATT against Acy3 | inactive: -0.609 |
| GGAGAGUAAAACCAAUACATT against Fam76a | inactive: -0.0433 |
| GCUGUGUAGCAUUUUAACATT against Ank2 | inactive: -0.0376 |
| CCCUUGAACAUUCUACUCUTT against 1700012A03Rik | inactive: -0.955 |
| GGUAGACGACAUUGAUGAATT against Sgf29 | inactive: -0.744 |
| GGUUAAUUUUCAGAAUGGATT against Canx | inactive: -0.936 |
